This is an account of results in PMC8193866.

The chains behind the UniProt entries cited, without tags or fusion partners.
UniProt Q9SRZ6: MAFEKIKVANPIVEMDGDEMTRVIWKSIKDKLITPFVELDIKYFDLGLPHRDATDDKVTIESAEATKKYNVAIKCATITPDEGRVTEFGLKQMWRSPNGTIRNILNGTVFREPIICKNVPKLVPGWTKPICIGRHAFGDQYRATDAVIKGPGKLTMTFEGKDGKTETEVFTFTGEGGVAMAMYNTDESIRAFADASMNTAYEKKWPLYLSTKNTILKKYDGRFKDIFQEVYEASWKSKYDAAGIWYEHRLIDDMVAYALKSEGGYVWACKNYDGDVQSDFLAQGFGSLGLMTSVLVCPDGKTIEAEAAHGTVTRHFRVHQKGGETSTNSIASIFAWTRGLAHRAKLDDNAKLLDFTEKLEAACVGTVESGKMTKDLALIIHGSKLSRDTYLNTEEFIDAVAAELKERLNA

The assay addresses T1, Brassinosteroid-insensitive 1 suppressor 1 (BRS1), yeast two-hybrid construct (Arabidopsis) (UniProt Q9M099).
T1 sequence: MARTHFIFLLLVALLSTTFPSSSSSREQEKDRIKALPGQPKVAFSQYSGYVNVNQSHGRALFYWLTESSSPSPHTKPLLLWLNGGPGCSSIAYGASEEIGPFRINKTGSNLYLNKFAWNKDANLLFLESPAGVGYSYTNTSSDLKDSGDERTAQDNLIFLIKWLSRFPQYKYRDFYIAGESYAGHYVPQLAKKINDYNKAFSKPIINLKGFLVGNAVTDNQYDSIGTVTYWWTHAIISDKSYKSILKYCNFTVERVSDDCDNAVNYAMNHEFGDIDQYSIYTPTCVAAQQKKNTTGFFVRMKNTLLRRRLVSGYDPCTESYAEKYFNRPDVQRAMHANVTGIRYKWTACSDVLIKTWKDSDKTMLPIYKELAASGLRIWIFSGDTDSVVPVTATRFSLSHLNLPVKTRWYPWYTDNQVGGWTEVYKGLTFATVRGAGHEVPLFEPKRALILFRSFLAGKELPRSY
As to the kind of experiment: two-hybrid; yeast two-hybrid; no methods given.

These are yes or no findings as the source states them, for the method shown.

For the substance “cytosolic NADP+-dependent isocitrate dehydrogenase (cICDH), yeast two-hybrid construct (from UniProt Q9SRZ6 1-410) (enzyme)”, the binding entry is listed as “no binding”.
